According to patent publication US20240408135A1:
These are yes or no findings as the source states them, for the method shown. Some entries that bind do so weakly or less than the wild type.

Tests used:
[1] = biological target: T1, B7-H3 on human CD3+ T cells (human) (UniProt Q5ZPR3); experiment: flow cytometry on human CD3+ T cells (peripheral and liver-infiltrating) from humanized NSG mice
T1 sequence (looked up): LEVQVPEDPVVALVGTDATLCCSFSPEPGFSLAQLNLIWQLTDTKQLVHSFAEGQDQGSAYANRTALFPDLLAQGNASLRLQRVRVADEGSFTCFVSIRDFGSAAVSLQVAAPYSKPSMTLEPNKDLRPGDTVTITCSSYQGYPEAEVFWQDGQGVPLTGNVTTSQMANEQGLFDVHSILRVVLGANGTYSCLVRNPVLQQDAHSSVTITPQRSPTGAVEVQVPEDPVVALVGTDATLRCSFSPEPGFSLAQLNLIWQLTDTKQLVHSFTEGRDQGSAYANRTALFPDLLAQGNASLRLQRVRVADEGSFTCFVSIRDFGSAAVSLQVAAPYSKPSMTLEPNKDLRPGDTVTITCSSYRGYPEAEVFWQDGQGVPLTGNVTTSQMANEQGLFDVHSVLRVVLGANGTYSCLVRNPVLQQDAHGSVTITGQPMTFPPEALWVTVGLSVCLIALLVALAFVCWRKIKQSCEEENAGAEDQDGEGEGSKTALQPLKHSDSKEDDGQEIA

[2] = biological target: T1, B7-H3 on human CD3+ T cells (human); experiment: flow cytometry on human T cells from a mixed lymphocyte reaction

binding [1]: binds | binding [2]: binds
B1: B7-H3-specific mAb 376.96 (antibody, V domains shown)
VH: EVQLVESGGGLVKPGGSLKLSCEASRFTFSSYAMSWVRQTPEKRLEWVAAISGGGRYTYYPDSMKGRFTISRDNAKNFLYLQMSSLRSEDTAMYYCARHYDGYLDYWGQGTTLTVSS
VL: DIVMTQSHKFMSTSIGARVSITCKASQDVRTAVAWYQQKPGQSPKLLIYSASYRYTGVPDRFTGSGSGTDFTFTISSVQAEDLAVYYCQQHYGTPPWTFGGGTKLEIK
